Read-outs that look alike come from different tables or passages of the source. These are yes or no findings as the source states them, for the method shown. For part of these data: Binding can be weak; no strength is given. For part of these data: Tags and fused reporters may be left off the sequences shown. For part of these data: Binding seen in cells or lysates may run through a third protein.
What was measured:
[1] = molecular target: T1, recombinant His-tagged FlaA flagellin of C. jejuni (non-glycosylated, E. coli-derived) (C. jejuni) (UniProt P22251); assay: far-Western, overlay or dot blot; serial dilutions (500, 250, 125, 62.5 ng) of purified His-tagged FlaA (in 4 M urea, 10 mM Tris, pH 9.0) separated by SDS-PAGE, blotted; probed with 50, 100, 200 μg of GST-FliS, 50 μg of GST-FliW or 200 μg of GST; both purified
T1 sequence: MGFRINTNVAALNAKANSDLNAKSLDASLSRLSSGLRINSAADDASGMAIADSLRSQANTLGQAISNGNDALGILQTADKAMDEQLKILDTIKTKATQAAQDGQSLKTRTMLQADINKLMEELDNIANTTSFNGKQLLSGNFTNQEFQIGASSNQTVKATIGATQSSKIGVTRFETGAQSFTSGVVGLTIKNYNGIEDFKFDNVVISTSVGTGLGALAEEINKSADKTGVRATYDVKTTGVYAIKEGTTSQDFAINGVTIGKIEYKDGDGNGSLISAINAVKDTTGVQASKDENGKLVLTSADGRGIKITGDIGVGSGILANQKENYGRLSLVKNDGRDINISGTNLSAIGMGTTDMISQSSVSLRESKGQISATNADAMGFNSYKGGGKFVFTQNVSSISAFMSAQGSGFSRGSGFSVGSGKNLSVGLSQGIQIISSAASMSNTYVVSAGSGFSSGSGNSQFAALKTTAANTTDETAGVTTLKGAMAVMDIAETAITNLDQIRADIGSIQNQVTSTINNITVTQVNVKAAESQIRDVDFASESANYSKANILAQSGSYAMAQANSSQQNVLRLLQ

[2] = molecular target: T2, recombinant His-tagged FlaB flagellin of C. jejuni (C. jejuni) (UniProt P22252); assay: far-Western, overlay or dot blot; 500 ng of total cell lysates of induced E. coli BL21 Star (DE3) expressing the His-tagged proteins (5 μg, 10x concentrated, for FlaAΔND0 and FlaAΔND1) separated by SDS-PAGE, on nitrocellulose; probed with 50 μg of purified GST-FliS, GST-FliW or GST in 2% skim milk TBS-T; anti-GST detection; only the binder purified
T2 sequence: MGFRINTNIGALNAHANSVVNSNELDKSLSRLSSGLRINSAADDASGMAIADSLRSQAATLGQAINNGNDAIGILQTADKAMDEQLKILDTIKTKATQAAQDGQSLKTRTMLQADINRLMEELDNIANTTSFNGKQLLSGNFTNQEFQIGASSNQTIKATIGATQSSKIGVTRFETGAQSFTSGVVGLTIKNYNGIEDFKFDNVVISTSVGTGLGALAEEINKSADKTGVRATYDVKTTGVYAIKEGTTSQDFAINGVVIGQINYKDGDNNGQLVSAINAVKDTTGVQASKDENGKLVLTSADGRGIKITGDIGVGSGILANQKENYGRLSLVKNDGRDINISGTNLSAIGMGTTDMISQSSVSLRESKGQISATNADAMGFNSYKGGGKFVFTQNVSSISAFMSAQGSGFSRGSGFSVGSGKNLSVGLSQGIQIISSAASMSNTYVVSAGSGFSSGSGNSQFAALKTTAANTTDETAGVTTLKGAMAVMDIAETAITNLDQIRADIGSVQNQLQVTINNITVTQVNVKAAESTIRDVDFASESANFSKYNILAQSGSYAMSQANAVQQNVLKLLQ

[3] = molecular target: T1, recombinant His-tagged FlaA flagellin of C. jejuni (non-glycosylated, E. coli-derived) (C. jejuni); assay: as above
[4] = molecular target: recombinant His-tagged FlaC flagellin of C. jejuni (C. jejuni) (UniProt P96747); assay: as above
[5] = molecular target: T3, His-tagged FliS of C. jejuni (C. jejuni) (UniProt P0DPD3); assay: pull-down; His-tagged bait (FliS-His or RacR-His) refolded on Ni2+-NTA agarose beads; culture supernatant of C. jejuni BC7 added, 1 h at RT; washed with 20 mM Tris, 250 mM NaCl, 20 mM imidazole, pH 7.4; eluted with 300 mM imidazole; blots with anti-FlaA/B or anti-FlaC serum; only the target …
T3 sequence: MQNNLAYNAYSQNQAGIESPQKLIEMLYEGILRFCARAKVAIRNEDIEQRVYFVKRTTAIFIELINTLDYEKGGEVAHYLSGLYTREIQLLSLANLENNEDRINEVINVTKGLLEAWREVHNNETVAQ

[6] = molecular target: T4, His-tagged RacR protein of C. jejuni (C. jejuni) (UniProt O68795); assay: as above
T4 sequence: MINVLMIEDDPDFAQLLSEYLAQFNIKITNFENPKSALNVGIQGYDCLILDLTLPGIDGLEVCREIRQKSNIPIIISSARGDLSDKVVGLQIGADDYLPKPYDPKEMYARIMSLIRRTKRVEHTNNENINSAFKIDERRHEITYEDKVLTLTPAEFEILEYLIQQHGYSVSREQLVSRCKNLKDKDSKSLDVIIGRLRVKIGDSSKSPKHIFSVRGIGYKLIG

FlaAΔCD0 (C. jejuni) = assay: far-Western, overlay or dot blot; 500 ng of total cell lysates of induced E. coli BL21 Star (DE3) expressing the His-tagged proteins (5 μg, 10x concentrated, for FlaAΔND0 and FlaAΔND1) separated by SDS-PAGE, on nitrocellulose; probed with 50 μg of purified GST-FliS, GST-FliW or GST in 2% skim milk TBS-T; anti-GST detection; only the binder purified
FlaAΔCD1 (C. jejuni) = assay: as above
FlaAΔND0 (C. jejuni) = assay: as above
FlaAΔND1 (C. jejuni) = assay: as above
[7] = molecular target: His-tagged FliC flagellin from S. enterica sv. Enteritidis (S. enterica sv. Enteritidis); assay: as above
[8] = molecular target: recombinant His-tagged FlaC flagellin of C. jejuni (C. jejuni) (UniProt P96747); assay: as above; remark: listed apart in the source
[9] = molecular target: FlaA/B flagellin of C. fetus (C. fetus (endogenous)); assay: far-Western, overlay or dot blot; 10 μl of stationary-phase liquid cultures (OD600 1) of C. jejuni strains, C. coli and C. fetus separated by SDS-PAGE, on nitrocellulose; probed with 50 μg of GST-FliS, GST-FliW or GST; anti-GST detection; only the binder purified
[10] = molecular target: FlaA/B flagellin of C. coli (C. coli (endogenous)); assay: as above
FlaAΔC39 (C. jejuni) = assay: far-Western, overlay or dot blot; 500 ng of purified full length FlaA and FlaAΔC10, FlaAΔC16, FlaAΔC39 separated by SDS-PAGE, on nitrocellulose; probed with 50 μg of GST-FliS or GST-FliW; anti-GST detection; both purified
FlaAΔC16 (C. jejuni) = assay: as above
FlaAΔC10 (C. jejuni) = assay: as above
[11] = molecular target: C. jejuni-derived FlaC flagellin (culture supernatant of strain BC7) (C. jejuni (endogenous in strain BC7)); assay: far-Western, overlay or dot blot; serial dilutions (500, 250, 125, 62.5 ng) of culture supernatant of C. jejuni BC7 (with or without 4 M urea) separated by SDS-PAGE, blotted; probed with 50, 100, 200 μg of GST-FliS, 50 μg of GST-FliW or 200 μg of GST; only the binder purified

Measured: binding

GST-tagged FliW of C. jejuni (from UniProt Q0P9H9)
no binding (tested: 50 μg of probe): [4]
binds: [1] | [2] | [3]

C. jejuni-derived FlaC flagellin (culture supernatant of strain BC7)
binds: [5]
no binding: [6]

B1: GST-tagged FliS of C. jejuni (protein, UniProt P0DPD3 1-128)
chain: T3 sequence
no binding (tested: 50 μg of probe): FlaAΔCD0 (C. jejuni) | FlaAΔCD1 (C. jejuni) | [7] | FlaAΔC39 (C. jejuni) | FlaAΔC16 (C. jejuni) | FlaAΔC10 (C. jejuni)
binds: FlaAΔND0 (C. jejuni) | FlaAΔND1 (C. jejuni) | [8] | [9] | [10] | [11]

Source: article PMC5466977
